{"source": "patent US6440996B1", "about": "“Monomeric and dimeric heterocycles, and therapeutic uses thereof” (priority 1998, dated 2002)", "key": {"[1]": {"test_system": "dopamine transporter", "conditions": "10 μM cocaine; 300 μM dopamine; d-amphetamine; cited from earlier work"}, "[2]": {"assay": "Drug discrimination, substitution for cocaine and co-administration with cocaine", "format": "in vivo", "conditions": "cocaine 1.25-10 mg/kg"}, "[3]": {"test_system": "Sprague-Dawley rats", "assay": "Locomotor activity (distance traveled, stereotypic behavior)", "format": "in vivo"}, "[4]": {"test_system": "rats", "assay": "Intravenous drug self-administration", "format": "in vivo", "conditions": "i.v., FR10; cocaine 1 mg/kg/infusion, analog 2 0.3-3 mg/kg/infusion, analog 3 0.125-0.5 mg/kg infusion; vs saline extinction", "excerpt": "J. Neurosci., 16, 7416-7427.\nRats were initially trained to lever press for food pellets in standard operant boxes. Following lever press training, rats were implanted with polyvinyl chloride catheters into femoral veins under halothane anesthesia (2-3% in medical grade oxygen) and were allowed to recover for an additional 7 days before initiation of i.v. drug self-administration testing. During drug self-administration sessions, food pellets were no longer delivered, and instead intravenous injections of drugs were delivered by way of the catheter.\nFollowing this second extinction test, self-administration of piperidine analog 2 was studied at doses of 1, 3, and 0.3 mg/kg/infusion in that order. Each dose was tested for five days. During all the re-acquisition test days, a priming infusion was given at the start of the session on each day."}}, "note": "For at least one compound, name, drawing or mass did not settle the structure."}
{"smiles": "COC(=O)[C@H]1[C@@H](OC(=O)c2ccccc2)C[C@@H]2CC[C@H]1N2C", "note": "[cocaine, reference compound]", "values": [{"measurement": "protection from the effect of 10 mM N-ethylmaleimide", "setting": "[1]", "result": "completely prevented"}, {"measurement": "cocaine-appropriate responding", "setting": "[2]", "result": "dose-related increase"}, {"measurement": "time course of stereotypic response", "setting": "[3]; 90 minutes following the drug injection", "result": "clear tendency to decline"}, {"measurement": "distance traveled", "setting": "[3]; i.p., cocaine 10 mg/kg, analog 2 3-20 mg/kg, vs saline control", "result": "significant (P<0.05) increase"}, {"measurement": "stereotypic behavior / stereotypic time", "setting": "[3]; i.p., cocaine 10 mg/kg, analog 2 10 and 20 mg/kg", "result": "significant (P<0.05) increase"}, {"measurement": "self-administration responding", "setting": "[4]", "result": "significantly (P<0.05) higher rates of responding"}]}
